# Measurements: paper PMC7346168
# No constants are given. Whether binding was seen depends on the method and setting. Binding seen in cells or lysates may run through a third protein. These calls come from enrichment with a bait or labelling near it, and not all partners need be listed.
# T1: 2-CysPRXA C54D (pseudo-hyperoxidized variant) (Arabidopsis) (UniProt Q96291)
# T1 sequence: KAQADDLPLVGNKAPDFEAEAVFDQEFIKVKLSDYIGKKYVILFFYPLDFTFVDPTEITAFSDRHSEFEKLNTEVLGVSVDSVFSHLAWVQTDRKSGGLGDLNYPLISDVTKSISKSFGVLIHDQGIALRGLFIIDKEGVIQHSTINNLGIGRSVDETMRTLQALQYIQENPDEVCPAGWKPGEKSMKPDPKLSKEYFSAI
# Biological target: T1, 2-CysPRXA C54D (pseudo-hyperoxidized variant) (Arabidopsis)
# Experiment: affinity purification with mass spectrometry; oxidizing: his6-tagged 2-CysPRXA variant (3 mg) on Ni-NTA-agarose pretreated with 1 mM H2O2; leaf extract (50 mg protein) made with 1 mM H2O2; 50 mM HEPES pH 8.0, 1 h, 4 °C; stepwise elution with 1 M NaCl, 10 mM DTT, 250 mM imidazole; hits not found on the column without 2-CysPRX; only the target purified
row,binding,Binder
1,binds,"HTPA synthase 1 (protein, UniProt Q9LZX6 40-365) AVVPNFHLPMRSLEDKNRTNTDDIRSLRVITAIKTPYLPDGRFDLQAYDDLVNTQIENGAEGVIVGGTTGEGQLMSWDEHIMLIGHTVNCFGGRIKVIGNTGSNSTREAIHATEQGFAMGMHGALHINPYYGKTSIEGMNAHFQTVLHMGPTIIYNVPGRTCQDIPPQVIFKLSQNPNMAGVKECVGNNRVEEYTEKGIVVWSGNDDQCHDSRWDHGATGVISVTSNLVPGLMRKLMFEGRNSALNAKLLPLMDWLFQEPNPIGVNTALAQLGVARPVFRLPYVPLPLSKRIEFVKLVKEIGREHFVGDRDVQVLDDDDFILIGRY"
2,binds,"Adenylosuccinate synthetase (protein, UniProt Q96529 46-490) SLSVAADSAATESLGRIGSLSQVSGVLGCQWGDEGKGKLVDILAQHFDIVARCQGGANAGHTIYNSEGKKFALHLVPSGILNEDTTCVIGNGVVVHLPGLFKEIDGLESNGVSCKGRILVSDRAHLLFDFHQEVDGLRESELAKSFIGTTKRGIGPAYSSKVIRNGIRVGDLRHMDTLPQKLDLLLSDAAARFQGFKYTPEMLREEVEAYKRYADRLEPYITDTVHFINDSISQKKKVLVEGGQATMLDIDFGTYPFVTSSSPSAGGICTGLGIAPSVVGDLIGVVKAYTTRVGSGPFPTENLGTGGDLLRLAGQEFGTTTGRPRRCGWLDIVALKFSCQINGFASLNLTKLDVLSDLNEIQLGVAYKRSDGTPVKSFPGDLRLLEELHVEYEVLPGWKSDISSVRNYSDLPKAAQQYVERIEELVGVPIHYIGIGPGRDALIYK"
3,binds,"Allene oxide synthase (protein, UniProt Q96242 34-518) SGSETPDLTVATRTGSKDLPIRNIPGNYGLPIVGPIKDRWDYFYDQGAEEFFKSRIRKYNSTVYRVNMPPGAFIAENPQVVALLDGKSFPVLFDVDKVEKKDLFTGTYMPSTELTGGYRILSYLDPSEPKHEKLKNLLFFLLKSSRNRIFPEFQATYSELFDSLEKELSLKGKADFGGSSDGTAFNFLARAFYGTNPADTKLKADAPGLITKWVLFNLHPLLSIGLPRVIEEPLIHTFSLPPALVKSDYQRLYEFFLESAGEILVEADKLGISREEATHNLLFATCFNTWGGMKILFPNMVKRIGRAGHQVHNRLAEEIRSVIKSNGGELTMGAIEKMELTKSVVYECLRFEPPVTAQYGRAKKDLVIESHDAAFKVKAGEMLYGYQPLATRDPKIFDRADEFVPERFVGEEGEKLLRHVLWSNGPETETPTVGNKQCAGKDFVVLVARLFVIEIFRRYDSFDIEVGTSPLGSSVNFSSLRKASF"
4,binds,"Dihydroxy-acid dehydratase (protein, UniProt Q9LIR4 35-608) SAQSVTADPSPPITDTNKLNKYSSRITEPKSQGGSQAILHGVGLSDDDLLKPQIGISSVWYEGNTCNMHLLKLSEAVKEGVENAGMVGFRFNTIGVSDAISMGTRGMCFSLQSRDLIADSIETVMSAQWYDGNISIPGCDKNMPGTIMAMGRLNRPGIMVYGGTIKPGHFQDKTYDIVSAFQSYGEFVSGSISDEQRKTVLHHSCPGAGACGGMYTANTMASAIEAMGMSLPYSSSIPAEDPLKLDECRLAGKYLLELLKMDLKPRDIITPKSLRNAMVSVMALGGSTNAVLHLIAIARSVGLELTLDDFQKVSDAVPFLADLKPSGKYVMEDIHKIGGTPAVLRYLLELGLMDGDCMTVTGQTLAQNLENVPSLTEGQEIIRPLSNPIKETGHIQILRGDLAPDGSVAKITGKEGLYFSGPALVFEGEESMLAAISADPMSFKGTVVVIRGEGPKGGPGMPEMLTPTSAIMGAGLGKECALLTDGRFSGGSHGFVVGHICPEAQEGGPIGLIKNGDIITIDIGKKRIDTQVSPEEMNDRRKKWTAPAYKVNRGVLYKYIKNVQSASDGCVTDE"
5,binds,"Photosystem II factor HCF136 (protein, UniProt O82660 79-403) DEQLSEWERVFLPIDPGVVLLDIAFVPDEPSRGFLLGTRQTLLETKDGGSTWNPRSIPSAEEEDFNYRFNSISFKGKEGWIIGKPAILLYTADAGENWDRIPLSSQLPGDMVFIKATEDKSAEMVTDEGAIYVTSNRGYNWKAAIQETVSATLNRTVSSGISGASYYTGTFSAVNRSPDGRYVAVSSRGNFFLTWEPGQPYWQPHNRAVARRIQNMGWRADGGLWLLVRGGGLYLSKGTGITEEFEEVPVQSRGFGILDVGYRSEEEAWAAGGSGILLRTRNGGKSWNRDKAADNIAANLYAVKFVDDKKGFVLGNDGVLLRYVG"
